Measured values from the supplement of paper PMC6078165.
The reference is the same well before dosing, and untreated signal decays as well.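 Fibroblast labels name human fibroblasts: mostly primary ones from tissues such as uterus (C12385, HUF), lung (H6013), bone (Hs27A), adrenal (HADF) and skin (WS1), plus mammary HMF and breast cancer-associated Hs343T. The cancer cells are basal-like or mesenchymal-like triple-negative breast cancer lines. The paper calls a changed response a hit when it shifts by more than 3x the replicate standard deviation. The tissue of the other fibroblasts is not given here.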

Tested on: MDAMB231
Experiment: relative JC-1 red fluorescence (viability) vs pre-drug, coculture with fibroblast (fraction); higher = more viable cancer cells
Procedure: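 JC-1 labelled TNBC cells cocultured 1:1 (1,500 cells each) with CellTrace Violet stained primary or stromal fibroblasts in 384-well plates in FluoroBrite medium, treated with one of 42 anticancer drugs at 0.1, 1, 10 or 100 uM. JC-1 red fluorescence (mitochondrial integrity in cancer cells only) was read by plate reader every 8 h for 72 h. Values are normalised to each well's pre-drug value. The stock of one drug was tenfold lower, so its dose labels may be too high.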

O=C1c2c(O)ccc(O)c2C(=O)c2c(NCCNCCO)ccc(NCCNCCO)c21 [Mitoxantrone]
relative JC-1 red fluorescence
Conditions | 8 h | 16 h | 24 h | 32 h | 40 h | 48 h | 56 h | 64 h | 72 h
0.1 µM, coculture fibroblast: C12385 | 0.698 | 0.6964 | 0.575 | 0.6114 | 0.5631 | 0.5293 | 0.49 | 0.4774 | 0.4573
0.1 µM, coculture fibroblast: H6013 | 0.845 | 0.804 | 0.769 | 0.754 | 0.718 | 0.697 | 0.684 | 0.658 | 0.621
0.1 µM, coculture fibroblast: H6019 | 0.7196 | 0.664 | 0.604 | 0.597 | 0.5522 | 0.541 | 0.497 | 0.495 | 0.4652
0.1 µM, coculture fibroblast: H6076 | 0.8734 | 0.774 | 0.715 | 0.70672 | 0.682 | 0.663 | 0.64 | 0.635 | 0.636
0.1 µM, coculture fibroblast: H6231 | 0.878 | 0.795 | 0.729 | 0.687 | 0.6401 | 0.6124 | 0.5661 | 0.55 | 0.519
0.1 µM, coculture fibroblast: HADF | 0.83542 | 0.786 | 0.771 | 0.757 | 0.735 | 0.701 | 0.695 | 0.673 | 0.628
0.1 µM, coculture fibroblast: HCFa | 0.8265 | 0.756 | 0.714 | 0.699 | 0.672 | 0.629 | 0.6 | 0.567 | 0.523
0.1 µM, coculture fibroblast: HCPF | 0.844 | 0.746 | 0.6736 | 0.6662 | 0.606 | 0.574 | 0.543 | 0.519 | 0.508
0.1 µM, coculture fibroblast: HHSteC | 0.8388 | 0.789 | 0.756 | 0.723 | 0.696 | 0.666 | 0.629 | 0.6 | 0.559
0.1 µM, coculture fibroblast: HMF | 0.833 | 0.74 | 0.682 | 0.663 | 0.623 | 0.595 | 0.562 | 0.546 | 0.535
0.1 µM, coculture fibroblast: HPFa | 0.8765 | 0.8529 | 0.796 | 0.772 | 0.756 | 0.732 | 0.68 | 0.647 | 0.595
0.1 µM, coculture fibroblast: HUF | 0.803 | 0.723 | 0.726 | 0.628 | 0.583 | 0.568 | 0.521 | 0.513 | 0.499
0.1 µM, coculture fibroblast: Hs5 | 0.874 | 0.817 | 0.798 | 0.773 | 0.752 | 0.707 | 0.686 | 0.668 | 0.659
0.1 µM, coculture fibroblast: Hs27A | 0.834 | 0.7802 | 0.754 | 0.748 | 0.714 | 0.6613 | 0.675 | 0.662 | 0.633
0.1 µM, coculture fibroblast: Hs343T | 0.8629 | 0.77 | 0.725 | 0.709 | 0.679 | 0.641 | 0.605 | 0.588 | 0.568
0.1 µM, coculture fibroblast: WS1 | 0.713 | 0.713 | 0.613 | 0.631 | 0.614 | 0.595 | 0.544 | 0.526 | 0.506
1 µM, coculture fibroblast: C12385 | 0.419 | 0.42 | 0.464 | 0.452 | 0.372 | – | – | – | –
1 µM, coculture fibroblast: H6013 | 0.544 | 0.5213 | 0.518 | 0.52 | 0.525 | – | – | – | –
1 µM, coculture fibroblast: H6019 | 0.448 | 0.4331 | 0.454 | 0.4571 | 0.44063 | – | – | – | –
1 µM, coculture fibroblast: H6076 | 0.6857 | 0.644 | 0.675 | 0.698 | 0.687 | – | – | – | –
1 µM, coculture fibroblast: H6231 | 0.694 | 0.599 | 0.635 | 0.648 | 0.647 | – | – | – | –
1 µM, coculture fibroblast: HADF | 0.506 | 0.472 | 0.481 | 0.47 | 0.47 | – | – | – | –
1 µM, coculture fibroblast: HCFa | 0.568 | 0.565 | 0.589 | 0.586 | 0.597 | – | – | – | –
1 µM, coculture fibroblast: HCPF | 0.676 | 0.585 | 0.598 | 0.612 | 0.6038 | – | – | – | –
1 µM, coculture fibroblast: HHSteC | 0.591 | 0.6 | 0.611 | 0.609 | – | – | – | – | –
1 µM, coculture fibroblast: HMF | 0.66685 | 0.587 | 0.621 | 0.651 | – | – | – | – | –
1 µM, coculture fibroblast: HPFa | 0.585 | 0.563 | 0.565 | 0.57 | – | – | – | – | –
1 µM, coculture fibroblast: HUF | 0.503 | 0.45 | 0.518 | 0.465 | – | – | – | – | –
1 µM, coculture fibroblast: Hs5 | 0.7035 | 0.6612 | 0.6666 | 0.6577 | – | – | – | – | –
1 µM, coculture fibroblast: Hs27A | 0.583 | 0.565 | 0.595 | 0.601 | – | – | – | – | –
1 µM, coculture fibroblast: Hs343T | 0.682 | 0.573 | 0.575 | 0.5758 | – | – | – | – | –
1 µM, coculture fibroblast: WS1 | 0.4197 | 0.397 | 0.436 | 0.416 | – | – | – | – | –
